For nine molecules, maximal number results are on record in the supplement of paper PMC9549374.

The list shows a part of the results. Rule as the data show it: active = 2-fold of DMSO or more and inactive = the rest. Single values of this set are uncertain. Some low values are a fixed figure set by the source, not a measured ratio.

This assay concerns CM7/1-hgem mouse ES cell-derived cardiomyocytes. The assay can be described thus: maximal number of mAG-hGem(1/110)-positive cardiomyocytes over 96 h, fold-change vs DMSO; higher = more cardiomyocyte cell cycle activity. The following applies: 1 µM; 96 (max over 12 h time points) h.
Consider `NC(N)=Nc1nc(CSCC/C(N)=N/S(N)(=O)=O)cs1`, for which the maximal number was inactive: 1. As to `CCCCC[C@H](CC(=O)O)C(=O)O`, the maximal number is inactive: 1. The result for `Clc1ccc(CO/N=C(\Cn2ccnc2)c2ccc(Cl)cc2Cl)c(Cl)c1` reads inactive: 0; that for `CCCCCCCCCCCCC[N+](C)(C)Cc1ccccc1`, inactive: 1; that for `Cc1cc(O)c(C)c(O)c1C(=O)O`, inactive: 1. The result for `O=C1O[C@H]([C@@H](O)CO)C(O)=C1O` reads inactive: 1. The result for `COc1c(O)cc2c(c1O)[C@@H]1O[C@H](CO)[C@@H](O)[C@H](O)[C@H]1OC2=O` reads inactive: 1. In the case of `CC(C)=CCc1c2c(c3occ(-c4ccc(O)c(O)c4)c(=O)c3c1O)C=CC(C)(C)O2`, the maximal number is inactive: 1. `C[N+](C)(C)CCO.[Cl-]`: the maximal number was inactive: 1.
